This passage reports binding results from article PMC5105131.

Chains of the proteins cited; added tags and fusions are not shown.
UniProt Q8IUF8: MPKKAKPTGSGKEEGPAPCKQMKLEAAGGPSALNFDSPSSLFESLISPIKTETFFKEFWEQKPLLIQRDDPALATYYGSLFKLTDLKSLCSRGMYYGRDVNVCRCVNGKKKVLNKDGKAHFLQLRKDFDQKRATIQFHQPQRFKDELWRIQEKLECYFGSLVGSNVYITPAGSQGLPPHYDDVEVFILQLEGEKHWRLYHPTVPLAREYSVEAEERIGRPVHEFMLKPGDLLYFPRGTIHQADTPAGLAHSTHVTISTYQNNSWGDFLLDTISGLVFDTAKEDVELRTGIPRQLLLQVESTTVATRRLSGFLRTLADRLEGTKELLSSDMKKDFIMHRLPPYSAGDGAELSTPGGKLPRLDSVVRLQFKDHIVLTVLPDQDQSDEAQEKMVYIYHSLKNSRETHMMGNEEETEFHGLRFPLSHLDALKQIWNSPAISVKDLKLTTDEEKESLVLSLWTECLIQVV
UniProt P01106: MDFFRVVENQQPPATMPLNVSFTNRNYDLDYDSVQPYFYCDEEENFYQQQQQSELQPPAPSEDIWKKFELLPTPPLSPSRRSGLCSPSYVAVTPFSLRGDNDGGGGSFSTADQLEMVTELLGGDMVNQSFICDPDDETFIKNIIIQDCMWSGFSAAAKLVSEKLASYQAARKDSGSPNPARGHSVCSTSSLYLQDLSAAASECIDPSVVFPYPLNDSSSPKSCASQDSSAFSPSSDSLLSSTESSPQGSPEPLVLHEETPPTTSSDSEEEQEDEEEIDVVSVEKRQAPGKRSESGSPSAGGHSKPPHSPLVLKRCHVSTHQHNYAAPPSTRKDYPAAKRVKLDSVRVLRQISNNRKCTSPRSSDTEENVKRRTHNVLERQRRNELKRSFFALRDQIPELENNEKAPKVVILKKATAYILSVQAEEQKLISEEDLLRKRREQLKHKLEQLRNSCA
UniProt Q92878: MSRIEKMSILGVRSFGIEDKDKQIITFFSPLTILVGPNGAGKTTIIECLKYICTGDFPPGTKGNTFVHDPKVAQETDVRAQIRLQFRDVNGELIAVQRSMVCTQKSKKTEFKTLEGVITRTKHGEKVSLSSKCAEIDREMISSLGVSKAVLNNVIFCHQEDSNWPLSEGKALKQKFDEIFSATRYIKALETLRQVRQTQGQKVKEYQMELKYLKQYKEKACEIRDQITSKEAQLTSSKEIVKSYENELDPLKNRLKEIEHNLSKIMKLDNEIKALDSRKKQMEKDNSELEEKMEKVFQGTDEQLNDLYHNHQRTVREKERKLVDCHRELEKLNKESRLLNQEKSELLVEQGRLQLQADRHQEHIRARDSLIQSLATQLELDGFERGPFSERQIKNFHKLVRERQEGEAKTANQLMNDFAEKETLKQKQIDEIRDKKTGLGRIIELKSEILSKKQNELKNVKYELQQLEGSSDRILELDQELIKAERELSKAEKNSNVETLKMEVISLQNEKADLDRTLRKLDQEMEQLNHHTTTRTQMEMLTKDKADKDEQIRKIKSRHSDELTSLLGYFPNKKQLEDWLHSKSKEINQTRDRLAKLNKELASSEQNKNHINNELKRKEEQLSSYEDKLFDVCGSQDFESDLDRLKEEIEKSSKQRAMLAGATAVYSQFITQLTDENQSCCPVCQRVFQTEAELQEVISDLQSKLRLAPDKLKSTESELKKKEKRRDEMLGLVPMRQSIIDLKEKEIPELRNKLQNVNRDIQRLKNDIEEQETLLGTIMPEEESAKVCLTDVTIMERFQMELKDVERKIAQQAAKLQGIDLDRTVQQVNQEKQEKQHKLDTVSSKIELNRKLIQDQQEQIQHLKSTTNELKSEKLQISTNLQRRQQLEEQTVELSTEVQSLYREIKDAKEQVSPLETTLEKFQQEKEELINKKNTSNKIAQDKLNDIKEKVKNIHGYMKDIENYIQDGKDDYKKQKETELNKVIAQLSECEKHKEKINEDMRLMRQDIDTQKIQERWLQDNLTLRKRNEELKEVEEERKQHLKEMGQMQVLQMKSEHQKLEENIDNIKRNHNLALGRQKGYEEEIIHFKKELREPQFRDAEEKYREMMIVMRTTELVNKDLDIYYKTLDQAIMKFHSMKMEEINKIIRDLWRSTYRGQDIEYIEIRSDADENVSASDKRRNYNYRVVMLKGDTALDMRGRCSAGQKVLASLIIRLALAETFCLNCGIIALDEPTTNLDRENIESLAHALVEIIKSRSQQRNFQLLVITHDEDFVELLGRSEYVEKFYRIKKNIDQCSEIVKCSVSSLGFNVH
UniProt P13010: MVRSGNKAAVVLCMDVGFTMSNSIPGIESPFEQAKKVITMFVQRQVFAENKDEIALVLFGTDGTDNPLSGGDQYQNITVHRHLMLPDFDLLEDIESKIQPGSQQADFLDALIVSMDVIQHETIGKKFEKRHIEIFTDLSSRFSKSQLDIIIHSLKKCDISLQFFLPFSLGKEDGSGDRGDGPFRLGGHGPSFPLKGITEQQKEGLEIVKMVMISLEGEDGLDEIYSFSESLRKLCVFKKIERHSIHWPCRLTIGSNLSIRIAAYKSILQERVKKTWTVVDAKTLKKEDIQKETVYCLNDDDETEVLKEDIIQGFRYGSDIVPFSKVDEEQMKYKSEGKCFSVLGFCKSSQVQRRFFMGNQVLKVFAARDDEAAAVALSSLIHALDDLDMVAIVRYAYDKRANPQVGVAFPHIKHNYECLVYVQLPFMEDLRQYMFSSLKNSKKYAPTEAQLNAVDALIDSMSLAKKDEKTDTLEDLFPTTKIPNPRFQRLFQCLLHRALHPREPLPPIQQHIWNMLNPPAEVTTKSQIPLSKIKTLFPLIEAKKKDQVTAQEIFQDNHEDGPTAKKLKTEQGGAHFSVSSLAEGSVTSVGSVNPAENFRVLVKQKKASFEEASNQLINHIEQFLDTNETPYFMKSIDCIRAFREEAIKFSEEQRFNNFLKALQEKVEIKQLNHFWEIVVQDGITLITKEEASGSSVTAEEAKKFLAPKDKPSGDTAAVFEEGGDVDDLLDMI
UniProt P12956: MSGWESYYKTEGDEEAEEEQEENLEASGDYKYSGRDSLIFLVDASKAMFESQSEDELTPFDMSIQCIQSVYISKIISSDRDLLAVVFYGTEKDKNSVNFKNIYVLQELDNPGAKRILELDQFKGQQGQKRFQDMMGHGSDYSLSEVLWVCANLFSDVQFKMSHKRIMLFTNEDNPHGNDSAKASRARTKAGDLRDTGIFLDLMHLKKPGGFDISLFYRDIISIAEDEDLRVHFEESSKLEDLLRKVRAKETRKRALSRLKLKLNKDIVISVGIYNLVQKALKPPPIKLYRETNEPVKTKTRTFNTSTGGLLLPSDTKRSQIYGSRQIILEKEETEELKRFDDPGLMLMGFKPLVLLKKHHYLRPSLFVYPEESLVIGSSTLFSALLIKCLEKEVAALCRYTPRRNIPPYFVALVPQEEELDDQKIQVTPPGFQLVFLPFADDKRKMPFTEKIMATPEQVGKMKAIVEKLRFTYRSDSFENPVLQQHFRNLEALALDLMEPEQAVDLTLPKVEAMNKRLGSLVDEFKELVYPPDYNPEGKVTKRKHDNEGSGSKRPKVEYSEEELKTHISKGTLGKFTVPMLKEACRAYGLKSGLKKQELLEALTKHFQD

For experiment [1], the target named is mdig (mineral dust-induced gene) (human (endogenous in NCI-H929 and MM1S)) (UniProt Q8IUF8). Nature of the experiment: affinity purification with mass spectrometry; co-IP of endogenous mdig or c-myc from NCI-H929 cells, 1D-SDS-PAGE, in-gel digestion, HPLC-ESI-MS/MS, MaxQuant.
Experiment [2] concerns the target c-myc (human (endogenous in NCI-H929 and MM1S)) (UniProt P01106). The description is as above.

These are yes or no findings as the source states them, for the method shown. Binding seen in cells or lysates may run through a third protein. A yes stands for co-enrichment or nearness to the bait. Other partners may have been found.

With Rad50 (from UniProt Q92878 1-1312), the binding entry in experiment [1] is listed as “binds”.
Take “mdig (mineral dust-induced gene) (from UniProt Q8IUF8 1-465)”: in experiment [2], the binding result is listed as “binds”.
Take XRCC5 (from UniProt P13010 1-732): the binding entry in experiment [1] is “binds”.
As for XRCC6 (from UniProt P12956 1-609), in experiment [1], the binding entry is recorded as “binds”.
